Part of at least one peptide drawing is inferred or uncertain, most often the ends. Some entries repeat one wording, which the source may state once for all of them. Numbered stars: 1 amine (or outer) side, 2 acyl side, 3 side chain; on linkers, the order of the positions; unused ones are H or OH. Square brackets hold non-standard residues; d marks the D form. Peptide text beside a SMILES is read from it. Haic = O=C1[C@@H](N[*:1])CCc2cccc3c2N1[C@H](C(=O)[*:2])C3; dTrp(2-Me) = Cc1[nH]c2ccccc2c1C[C@@H](N)C(=O)O
Legend:
GHRP receptors = test: GHRP receptor assay: 125I-Tyr-Ala-Hexarelin binding to tumor membranes; parameters: species or system human; conditions: membranes of a non-endocrine carcinoma of lung origin; FIG. 3
Experimental: Surgical tumor specimens were collected from the Department of Biomedical Sciences and Human Oncology (Division of Pathology) of the University of Turin. A tumor fragment adjacent to that used for histopathological diagnosis was immediately frozen at -80° C. and stored for 2 to 60 months until further processed for binding studies. Samples of 13 invasive breast carcinoma (10 ductal and 3 lobular), 14 non-endocrine lung carcinomas (5 squamous cell and 9 adenocarcinomas), 11 endocrine tumors of the lung, 9 endocrine tumors of the pancreas and 12 thyroid carcinomas (7 of follicular origin and 5 of medullary origin) were used. Non-neoplastic normal tissues of the corresponding organs were also analysed in parallel with the individual tumors.
GHRP receptors were measured on tumor membranes as described in G. Muccioli et al., Journal of Endocrinology, 157, 99-106, 1998, using ^125 I-Tyr-Ala-Hexarelin as a ligand. Specific binding was calculated as the difference between binding in the absence and in the presence of excess unlabelled Tyr-Ala-Hexarelin and expressed as a percentage of the radioactivity added. Saturation and competition binding studies were analyzed with the GraphPAD Prism 2 program (GraphPAD Software, San Diego, Calif., USA).

[1] = tested on: Human lung carcinoma cells (CaLu1); format: cell-based; conditions: EGF 1 ng/ml; for effect on basal and EGF-stimulated 3H-thymidine incorporation: 10-6 mol/l compound, 20 h + 4 h incubation, FIG. 4; for inhibition of the proliferative effect of EGF with increasing concentrations: 10^-8 to 10^-6 mol/l, FIG. 5
Experimental: Human lung carcinoma cells (CaLu1), T47D and MDA-MB231, respectively, human oestrogen dependent and oestrogen independent breast cancer cell lines were purchased from the ATCC (Rockville, Md., USA). Cells were routinely cultured in […] flasks at 37° C., 5% CO2 and 95% humidified atmosphere in RPMI supplemented with 10% FCS, penicillin-streptomycin and fungizone. When a subconfluent state was reached, cells were detached from the flasks with trypsin/EDTA. DNA synthesis was evaluated by ^3 H-thymidine incorporation as described in G. Muccioli et al., Journal of Endocrinology, 153, 365-371, 1997. […] After incubation for 20 hours, ^3 H-thymidine was added and incubation was continued for a further 4 hours. The reaction was halted and the cells were harvested onto glass-fiber filter strips. Incorporation of ^3 H-thymidine was measured in a scintillation counter.

GH release = GH release in neonatal rats; format: in vivo

Structure (SMILES) | competition with 125I-Tyr-Ala-Hexarelin for the tumoral binding sites (displacement of radiotracer binding) (GHRP receptors) | effect on basal and EGF-stimulated 3H-thymidine incorporation [1] | inhibition of the proliferative effect of EGF with increasing concentrations [1] | GH release (GH release)
NCCCC[C@H](NC(=O)[C@@H](Cc1ccccc1)NC(=O)[C@H](Cc1c[nH]c2ccccc12)NC(=O)[C@@H](CCCCN)NC(=O)[C@@H](Cc1c[nH]c2ccccc12)NC(=O)[C@@H](N)Cc1c[nH]cn1)C(N)=O [(D-Lys)3 -GHRP6, His-D-Trp-D-Lys-Trp-D-Phe-Lys-NH2] (H-H[dW][dK]W[dF]K-NH2) | displaced in a dose-dependent fashion | antiproliferative effect was also observed | inhibited in a dose-dependent fashion | –
Cc1[nH]c2ccccc2c1C[C@@H](NC(=O)[C@H](Cc1c[nH]cn1)NC(=O)[C@H](C)N)C(=O)N[C@@H](C)C(=O)N[C@@H](Cc1c[nH]c2ccccc12)C(=O)N[C@H](Cc1ccccc1)C(=O)N[C@@H](CCCCN)C(N)=O [Ala-Hexarelin, Ala-His-D-Mrp-Ala-Trp-D-Phe-Lys-NH2] (H-AH[dTrp(2-Me)]AW[dF]K-NH2) | displaced in a dose-dependent fashion | antiproliferative effect was also observed | inhibited in a dose-dependent fashion | –
Cc1[nH]c2ccccc2c1C[C@@H](NC(=O)[C@@H]1Cc2cccc3c2N1C(=O)[C@@H](N)CC3)C(=O)N[C@H](CCCCN)C(=O)N[C@@H](Cc1c[nH]c2ccccc12)C(=O)N[C@H](Cc1ccccc1)C(=O)N[C@@H](CCCCN)C(N)=O [EP80317, HAIC-D-Mrp-D-Lys-Trp-D-Phe-Lys-NH2] (Haic-[dTrp(2-Me)][dK]W[dF]K-NH2) | displaced in a dose-dependent fashion | antiproliferative effect was also observed | inhibited in a dose-dependent fashion | does not release GH
Cc1[nH]c2ccccc2c1C[C@@H](NC(=O)[C@H](Cc1c[nH]cn1)NC(=O)[C@H](C)NC(=O)[C@@H](N)Cc1ccc(O)cc1)C(=O)N[C@@H](C)C(=O)N[C@@H](Cc1c[nH]c2ccccc12)C(=O)N[C@H](Cc1ccccc1)C(=O)N[C@@H](CCCCN)C(N)=O [Tyr-Ala-Hexarelin, Tyr-Ala-His-D-Mrp-Ala-Trp-D-Phe-Lys-NH2] (H-YAH[dTrp(2-Me)]AW[dF]K-NH2) | displaced in a dose-dependent fashion | antiproliferative effect was also observed | inhibited in a dose-dependent fashion | –

Source: patent publication US6124263A, “Treatment of tumors by administration of growth hormone releasing compounds and their antagonists” (Asta Medica AG, priority 1998, dated 2000)
